# From patent US12522562B2, “Intestine-specific partial agonists of farnesoid X receptor and uses thereof” (EWHA DrugDesignHouse Co., Ltd., priority 2022, dated 2026)
# Values joined by “and” are separate entries in the source; they are usually repeats but may differ in a detail not shown here. Equal entries are not always repeated. At least one read-out could not be matched to a standard name with certainty.
# How the values were obtained:
# Assay in all cases: Nuclear receptor selectivity panel (PathHunter NHR protein interaction assay)
# AR = molecular target: T1, AR (Homo sapiens, UniProt P10275); settings: relative to 6α-fluorotestosterone
# T1 sequence (P10275 1-920): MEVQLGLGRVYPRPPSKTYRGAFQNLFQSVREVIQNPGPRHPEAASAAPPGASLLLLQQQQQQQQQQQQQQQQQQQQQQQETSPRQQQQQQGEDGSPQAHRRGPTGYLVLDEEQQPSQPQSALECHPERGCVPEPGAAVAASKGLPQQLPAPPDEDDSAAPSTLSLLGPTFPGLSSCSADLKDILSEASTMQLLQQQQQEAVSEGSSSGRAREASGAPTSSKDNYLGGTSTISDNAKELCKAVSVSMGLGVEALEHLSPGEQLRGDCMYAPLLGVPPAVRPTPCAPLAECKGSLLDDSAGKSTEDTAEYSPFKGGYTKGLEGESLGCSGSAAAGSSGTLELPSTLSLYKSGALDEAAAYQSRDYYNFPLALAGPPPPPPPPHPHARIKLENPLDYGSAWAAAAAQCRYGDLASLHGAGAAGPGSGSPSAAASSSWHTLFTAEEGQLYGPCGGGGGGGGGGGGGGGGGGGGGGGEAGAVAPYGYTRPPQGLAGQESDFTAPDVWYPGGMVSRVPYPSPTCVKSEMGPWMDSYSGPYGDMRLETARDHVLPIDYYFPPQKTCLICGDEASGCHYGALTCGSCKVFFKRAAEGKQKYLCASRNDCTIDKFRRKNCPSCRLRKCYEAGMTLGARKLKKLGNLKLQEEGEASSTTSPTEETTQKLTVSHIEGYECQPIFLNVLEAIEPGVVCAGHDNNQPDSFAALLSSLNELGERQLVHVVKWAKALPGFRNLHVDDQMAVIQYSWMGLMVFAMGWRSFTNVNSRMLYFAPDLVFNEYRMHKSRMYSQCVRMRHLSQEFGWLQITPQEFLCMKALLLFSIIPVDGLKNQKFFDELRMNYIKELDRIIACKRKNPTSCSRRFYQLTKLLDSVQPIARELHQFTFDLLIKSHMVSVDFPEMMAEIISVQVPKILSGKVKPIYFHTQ
# PPARγ = molecular target: T2, PPARγ (Homo sapiens, UniProt P37231); settings: relative to troglitazone
# T2 sequence (P37231 1-505): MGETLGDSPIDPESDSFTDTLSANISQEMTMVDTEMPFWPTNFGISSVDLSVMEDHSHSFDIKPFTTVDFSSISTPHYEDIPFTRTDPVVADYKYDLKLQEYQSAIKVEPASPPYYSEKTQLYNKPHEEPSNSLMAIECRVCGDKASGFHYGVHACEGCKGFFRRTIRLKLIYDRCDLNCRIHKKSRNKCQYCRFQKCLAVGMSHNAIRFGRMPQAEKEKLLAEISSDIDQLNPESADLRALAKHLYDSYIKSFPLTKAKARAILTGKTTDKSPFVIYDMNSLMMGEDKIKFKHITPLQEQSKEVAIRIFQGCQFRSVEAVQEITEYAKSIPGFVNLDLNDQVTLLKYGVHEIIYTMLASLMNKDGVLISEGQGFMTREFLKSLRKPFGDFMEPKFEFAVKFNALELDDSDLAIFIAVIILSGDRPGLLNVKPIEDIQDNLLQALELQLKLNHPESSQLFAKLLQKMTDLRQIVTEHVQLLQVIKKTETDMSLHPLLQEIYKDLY
# PRα = molecular target: T3, PRα (Homo sapiens, UniProt P06401); settings: relative to norgestrel
# T3 sequence (P06401 1-769 isoform P06401-2): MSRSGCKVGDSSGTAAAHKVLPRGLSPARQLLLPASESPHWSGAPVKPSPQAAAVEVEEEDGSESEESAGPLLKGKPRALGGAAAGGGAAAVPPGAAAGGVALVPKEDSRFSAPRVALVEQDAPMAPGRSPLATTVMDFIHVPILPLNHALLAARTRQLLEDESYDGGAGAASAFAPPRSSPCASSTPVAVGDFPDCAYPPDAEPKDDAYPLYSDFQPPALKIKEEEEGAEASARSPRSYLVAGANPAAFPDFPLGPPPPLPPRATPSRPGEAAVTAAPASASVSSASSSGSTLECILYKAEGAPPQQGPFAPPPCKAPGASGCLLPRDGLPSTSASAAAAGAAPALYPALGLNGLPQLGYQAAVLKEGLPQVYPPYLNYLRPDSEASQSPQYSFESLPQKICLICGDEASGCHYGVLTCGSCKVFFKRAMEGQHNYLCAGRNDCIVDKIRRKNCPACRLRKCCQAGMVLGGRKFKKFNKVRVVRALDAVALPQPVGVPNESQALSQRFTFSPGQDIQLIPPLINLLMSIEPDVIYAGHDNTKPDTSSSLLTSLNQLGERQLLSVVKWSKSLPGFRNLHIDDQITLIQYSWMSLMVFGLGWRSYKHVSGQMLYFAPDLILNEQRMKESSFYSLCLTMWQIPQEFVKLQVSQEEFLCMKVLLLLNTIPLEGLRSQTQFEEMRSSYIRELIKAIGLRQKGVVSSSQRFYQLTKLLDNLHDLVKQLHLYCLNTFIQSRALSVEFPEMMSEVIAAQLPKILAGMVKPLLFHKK
# THRβ = molecular target: T4, THRβ (Homo sapiens, UniProt P10828); settings: relative to triiodothyronine
# T4 sequence (P10828 1-461): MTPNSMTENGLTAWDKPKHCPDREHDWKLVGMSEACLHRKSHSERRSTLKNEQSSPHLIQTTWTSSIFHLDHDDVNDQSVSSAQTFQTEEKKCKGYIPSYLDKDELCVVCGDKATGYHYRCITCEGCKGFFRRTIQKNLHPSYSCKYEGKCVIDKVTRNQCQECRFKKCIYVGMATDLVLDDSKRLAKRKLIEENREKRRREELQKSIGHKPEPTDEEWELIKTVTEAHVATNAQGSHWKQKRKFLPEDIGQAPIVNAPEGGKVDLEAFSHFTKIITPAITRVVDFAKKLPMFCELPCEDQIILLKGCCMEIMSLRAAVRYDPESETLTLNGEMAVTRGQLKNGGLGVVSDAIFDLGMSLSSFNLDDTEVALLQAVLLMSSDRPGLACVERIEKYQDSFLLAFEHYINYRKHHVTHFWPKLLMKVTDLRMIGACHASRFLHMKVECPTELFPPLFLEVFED
compound,measurement,setting,value
"COC(=O)/C=C/c1cccc(N(Cc2ccc(-c3ccc(N(C)C)cc3)c(C#N)c2)C(=O)C2CCCCC2)c1 [Example 4, (E)-3-(3-((2-cyano-4′-dimethylaminobiphenyl-4-ylmethyl)cyclohexanecarbonylamino)phenyl)acrylic Acid Methyl Ester]",% max. rel. efficacy at 100 uM,AR,< 3% and −2%
same,% max. rel. efficacy at 100 uM,PPARγ,2%
same,% max. rel. efficacy at 100 uM,PRα,< 3% and −1%
same,% max. rel. efficacy at 100 uM,THRβ,< 3% and 1%
